The supplement of paper PMC10849652
The other results are listed elsewhere or left out.

By UniProt entry, the sequences of proteins in these tests, tags left out. Where a name states a change or a piece, a line headed by the entry shows the natural chain unless it says otherwise.
UniProt Q8IY26: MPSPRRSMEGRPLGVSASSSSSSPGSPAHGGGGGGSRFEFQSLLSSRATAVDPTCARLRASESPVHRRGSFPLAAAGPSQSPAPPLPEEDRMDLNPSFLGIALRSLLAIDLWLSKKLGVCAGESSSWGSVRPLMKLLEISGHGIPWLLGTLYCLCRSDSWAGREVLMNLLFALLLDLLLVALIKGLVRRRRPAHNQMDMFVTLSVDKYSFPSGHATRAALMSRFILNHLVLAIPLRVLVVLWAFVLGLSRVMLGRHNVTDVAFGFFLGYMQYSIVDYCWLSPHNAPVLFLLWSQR
UniProt P0DPB5: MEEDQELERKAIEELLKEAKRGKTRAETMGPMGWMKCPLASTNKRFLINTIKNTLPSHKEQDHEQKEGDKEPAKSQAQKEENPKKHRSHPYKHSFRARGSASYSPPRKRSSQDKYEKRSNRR
UniProt Q8IYS1: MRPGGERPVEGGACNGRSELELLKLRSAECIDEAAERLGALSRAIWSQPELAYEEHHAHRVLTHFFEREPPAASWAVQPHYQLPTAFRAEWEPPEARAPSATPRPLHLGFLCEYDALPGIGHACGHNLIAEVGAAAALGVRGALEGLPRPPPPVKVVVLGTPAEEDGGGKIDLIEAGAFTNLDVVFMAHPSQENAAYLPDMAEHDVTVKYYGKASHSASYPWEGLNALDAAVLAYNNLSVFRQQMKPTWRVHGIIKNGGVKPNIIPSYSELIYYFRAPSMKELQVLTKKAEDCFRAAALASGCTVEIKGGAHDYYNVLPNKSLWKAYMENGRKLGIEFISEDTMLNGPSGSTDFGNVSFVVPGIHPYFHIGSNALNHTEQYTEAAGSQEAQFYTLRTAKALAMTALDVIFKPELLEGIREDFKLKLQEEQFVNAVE
UniProt Q9NUX5: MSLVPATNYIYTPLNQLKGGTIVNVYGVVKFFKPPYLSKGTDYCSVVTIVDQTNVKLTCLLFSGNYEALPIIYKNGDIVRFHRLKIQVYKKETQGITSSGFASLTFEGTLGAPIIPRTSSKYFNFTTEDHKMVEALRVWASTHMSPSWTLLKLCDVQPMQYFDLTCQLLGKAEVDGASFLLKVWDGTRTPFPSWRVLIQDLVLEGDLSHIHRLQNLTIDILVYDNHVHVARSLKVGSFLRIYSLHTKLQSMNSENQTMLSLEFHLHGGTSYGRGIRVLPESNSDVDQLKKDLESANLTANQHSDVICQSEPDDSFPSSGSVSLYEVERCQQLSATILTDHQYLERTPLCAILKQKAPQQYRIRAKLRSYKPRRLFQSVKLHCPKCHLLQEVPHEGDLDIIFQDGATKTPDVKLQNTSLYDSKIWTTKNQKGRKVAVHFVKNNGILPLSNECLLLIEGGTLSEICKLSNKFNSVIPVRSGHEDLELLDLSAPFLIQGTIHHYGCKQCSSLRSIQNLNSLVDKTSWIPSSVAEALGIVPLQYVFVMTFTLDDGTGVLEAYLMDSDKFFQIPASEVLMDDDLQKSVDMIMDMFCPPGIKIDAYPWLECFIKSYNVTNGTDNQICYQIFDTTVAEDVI
UniProt Q68D20: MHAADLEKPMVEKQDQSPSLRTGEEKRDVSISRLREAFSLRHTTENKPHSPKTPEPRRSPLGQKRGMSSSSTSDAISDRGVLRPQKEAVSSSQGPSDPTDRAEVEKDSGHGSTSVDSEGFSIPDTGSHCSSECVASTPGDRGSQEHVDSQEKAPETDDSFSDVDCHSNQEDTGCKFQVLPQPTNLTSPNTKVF
UniProt Q9HCU8: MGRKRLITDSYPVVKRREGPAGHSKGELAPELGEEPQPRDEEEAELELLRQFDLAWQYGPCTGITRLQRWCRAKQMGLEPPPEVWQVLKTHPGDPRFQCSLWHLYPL
UniProt Q9GZS1, whole entry, looked up: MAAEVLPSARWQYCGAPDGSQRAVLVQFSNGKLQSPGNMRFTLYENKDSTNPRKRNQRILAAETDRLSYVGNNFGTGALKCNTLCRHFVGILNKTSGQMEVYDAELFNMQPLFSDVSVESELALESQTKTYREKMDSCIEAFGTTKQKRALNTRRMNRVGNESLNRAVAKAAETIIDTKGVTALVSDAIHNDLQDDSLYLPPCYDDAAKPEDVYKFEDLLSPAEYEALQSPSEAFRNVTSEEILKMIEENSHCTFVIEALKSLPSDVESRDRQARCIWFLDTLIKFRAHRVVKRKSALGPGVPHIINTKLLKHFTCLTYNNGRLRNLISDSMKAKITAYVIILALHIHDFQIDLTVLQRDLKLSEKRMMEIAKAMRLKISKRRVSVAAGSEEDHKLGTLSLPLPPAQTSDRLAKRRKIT
UniProt Q9BT43: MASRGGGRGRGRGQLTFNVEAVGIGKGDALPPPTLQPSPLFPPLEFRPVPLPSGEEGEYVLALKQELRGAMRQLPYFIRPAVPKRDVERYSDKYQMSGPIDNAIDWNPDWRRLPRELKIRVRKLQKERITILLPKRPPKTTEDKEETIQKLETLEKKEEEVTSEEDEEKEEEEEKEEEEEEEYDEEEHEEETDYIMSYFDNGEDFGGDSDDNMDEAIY
UniProt Q9NRY6: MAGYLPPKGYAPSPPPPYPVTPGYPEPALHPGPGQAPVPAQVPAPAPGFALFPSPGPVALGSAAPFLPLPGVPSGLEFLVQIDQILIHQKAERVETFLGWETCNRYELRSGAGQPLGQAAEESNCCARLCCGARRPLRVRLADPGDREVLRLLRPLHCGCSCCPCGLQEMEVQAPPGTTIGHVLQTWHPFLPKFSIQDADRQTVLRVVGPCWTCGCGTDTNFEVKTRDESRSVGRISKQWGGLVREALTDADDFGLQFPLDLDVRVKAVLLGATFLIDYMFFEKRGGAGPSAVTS
UniProt P62937, whole entry, looked up: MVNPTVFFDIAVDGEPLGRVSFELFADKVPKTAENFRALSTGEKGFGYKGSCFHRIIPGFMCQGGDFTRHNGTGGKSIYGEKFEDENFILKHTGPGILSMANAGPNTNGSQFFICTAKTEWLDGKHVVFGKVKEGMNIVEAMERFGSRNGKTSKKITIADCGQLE
UniProt Q8IY17: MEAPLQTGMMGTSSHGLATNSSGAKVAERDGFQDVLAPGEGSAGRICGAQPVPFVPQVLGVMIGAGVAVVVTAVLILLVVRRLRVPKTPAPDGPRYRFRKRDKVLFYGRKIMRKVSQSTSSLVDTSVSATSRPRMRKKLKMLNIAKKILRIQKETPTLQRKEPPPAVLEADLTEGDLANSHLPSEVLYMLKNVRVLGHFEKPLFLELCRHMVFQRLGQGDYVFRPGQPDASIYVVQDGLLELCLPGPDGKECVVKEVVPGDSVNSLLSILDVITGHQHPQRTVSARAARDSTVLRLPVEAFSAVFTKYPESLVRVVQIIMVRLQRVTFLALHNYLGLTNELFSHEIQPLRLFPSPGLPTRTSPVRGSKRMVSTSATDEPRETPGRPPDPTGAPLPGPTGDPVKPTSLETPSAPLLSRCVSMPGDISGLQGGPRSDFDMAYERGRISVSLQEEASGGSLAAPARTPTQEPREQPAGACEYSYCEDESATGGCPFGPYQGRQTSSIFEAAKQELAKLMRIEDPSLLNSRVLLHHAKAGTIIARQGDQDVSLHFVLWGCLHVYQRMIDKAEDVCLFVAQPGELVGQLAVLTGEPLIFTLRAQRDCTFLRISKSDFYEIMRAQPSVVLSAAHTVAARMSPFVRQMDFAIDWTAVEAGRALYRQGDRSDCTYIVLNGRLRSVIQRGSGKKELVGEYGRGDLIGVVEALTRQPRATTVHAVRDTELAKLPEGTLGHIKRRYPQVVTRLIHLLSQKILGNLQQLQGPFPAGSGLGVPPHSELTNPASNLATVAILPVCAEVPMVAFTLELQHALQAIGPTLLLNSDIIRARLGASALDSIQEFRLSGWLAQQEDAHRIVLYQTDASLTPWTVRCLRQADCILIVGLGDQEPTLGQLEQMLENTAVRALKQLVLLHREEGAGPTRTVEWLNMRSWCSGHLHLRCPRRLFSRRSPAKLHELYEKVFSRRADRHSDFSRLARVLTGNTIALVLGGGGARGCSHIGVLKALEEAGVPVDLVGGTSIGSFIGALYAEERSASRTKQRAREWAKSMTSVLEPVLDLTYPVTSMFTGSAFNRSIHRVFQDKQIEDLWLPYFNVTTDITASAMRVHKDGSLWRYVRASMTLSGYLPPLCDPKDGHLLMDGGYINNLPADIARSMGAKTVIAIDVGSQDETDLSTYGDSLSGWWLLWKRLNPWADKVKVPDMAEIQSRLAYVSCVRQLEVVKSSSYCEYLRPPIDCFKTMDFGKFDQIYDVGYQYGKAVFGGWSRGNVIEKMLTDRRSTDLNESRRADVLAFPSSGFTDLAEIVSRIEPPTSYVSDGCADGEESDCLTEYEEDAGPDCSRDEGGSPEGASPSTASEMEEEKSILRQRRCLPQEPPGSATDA
UniProt Q9H237: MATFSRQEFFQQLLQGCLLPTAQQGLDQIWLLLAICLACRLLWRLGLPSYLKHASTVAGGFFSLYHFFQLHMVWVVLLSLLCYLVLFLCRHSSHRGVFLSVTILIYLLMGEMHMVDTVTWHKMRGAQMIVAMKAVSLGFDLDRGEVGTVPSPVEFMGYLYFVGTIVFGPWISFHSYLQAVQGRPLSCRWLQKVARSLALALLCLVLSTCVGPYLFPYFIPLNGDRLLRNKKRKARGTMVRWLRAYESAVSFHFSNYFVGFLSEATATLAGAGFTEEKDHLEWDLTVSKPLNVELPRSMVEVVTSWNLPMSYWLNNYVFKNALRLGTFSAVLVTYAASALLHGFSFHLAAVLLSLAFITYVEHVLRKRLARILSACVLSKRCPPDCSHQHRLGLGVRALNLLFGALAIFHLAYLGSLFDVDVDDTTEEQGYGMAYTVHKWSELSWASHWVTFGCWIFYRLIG
UniProt O75688: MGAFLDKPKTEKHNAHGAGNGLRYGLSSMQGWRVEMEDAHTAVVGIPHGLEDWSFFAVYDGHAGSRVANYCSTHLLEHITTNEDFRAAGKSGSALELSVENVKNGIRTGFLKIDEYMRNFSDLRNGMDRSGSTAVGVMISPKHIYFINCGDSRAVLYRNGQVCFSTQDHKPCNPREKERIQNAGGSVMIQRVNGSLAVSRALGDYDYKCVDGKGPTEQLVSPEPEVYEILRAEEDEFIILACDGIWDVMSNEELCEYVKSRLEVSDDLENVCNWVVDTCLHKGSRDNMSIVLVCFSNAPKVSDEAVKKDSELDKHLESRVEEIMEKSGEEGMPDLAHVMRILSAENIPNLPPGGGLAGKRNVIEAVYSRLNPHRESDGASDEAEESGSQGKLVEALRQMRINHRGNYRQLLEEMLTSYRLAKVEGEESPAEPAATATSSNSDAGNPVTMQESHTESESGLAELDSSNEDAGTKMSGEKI
UniProt Q8NEY8: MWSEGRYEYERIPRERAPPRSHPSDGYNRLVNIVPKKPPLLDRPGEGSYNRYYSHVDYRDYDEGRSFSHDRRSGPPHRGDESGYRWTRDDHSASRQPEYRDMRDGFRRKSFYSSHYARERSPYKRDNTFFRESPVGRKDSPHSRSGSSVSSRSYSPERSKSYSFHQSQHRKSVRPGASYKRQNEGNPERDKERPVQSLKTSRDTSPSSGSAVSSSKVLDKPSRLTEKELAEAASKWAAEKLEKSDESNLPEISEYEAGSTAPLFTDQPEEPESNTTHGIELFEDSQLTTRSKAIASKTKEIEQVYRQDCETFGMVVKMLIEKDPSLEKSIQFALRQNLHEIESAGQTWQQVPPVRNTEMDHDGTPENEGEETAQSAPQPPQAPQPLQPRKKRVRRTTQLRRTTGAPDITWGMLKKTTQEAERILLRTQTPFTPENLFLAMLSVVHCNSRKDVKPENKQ
UniProt Q9Y6A1: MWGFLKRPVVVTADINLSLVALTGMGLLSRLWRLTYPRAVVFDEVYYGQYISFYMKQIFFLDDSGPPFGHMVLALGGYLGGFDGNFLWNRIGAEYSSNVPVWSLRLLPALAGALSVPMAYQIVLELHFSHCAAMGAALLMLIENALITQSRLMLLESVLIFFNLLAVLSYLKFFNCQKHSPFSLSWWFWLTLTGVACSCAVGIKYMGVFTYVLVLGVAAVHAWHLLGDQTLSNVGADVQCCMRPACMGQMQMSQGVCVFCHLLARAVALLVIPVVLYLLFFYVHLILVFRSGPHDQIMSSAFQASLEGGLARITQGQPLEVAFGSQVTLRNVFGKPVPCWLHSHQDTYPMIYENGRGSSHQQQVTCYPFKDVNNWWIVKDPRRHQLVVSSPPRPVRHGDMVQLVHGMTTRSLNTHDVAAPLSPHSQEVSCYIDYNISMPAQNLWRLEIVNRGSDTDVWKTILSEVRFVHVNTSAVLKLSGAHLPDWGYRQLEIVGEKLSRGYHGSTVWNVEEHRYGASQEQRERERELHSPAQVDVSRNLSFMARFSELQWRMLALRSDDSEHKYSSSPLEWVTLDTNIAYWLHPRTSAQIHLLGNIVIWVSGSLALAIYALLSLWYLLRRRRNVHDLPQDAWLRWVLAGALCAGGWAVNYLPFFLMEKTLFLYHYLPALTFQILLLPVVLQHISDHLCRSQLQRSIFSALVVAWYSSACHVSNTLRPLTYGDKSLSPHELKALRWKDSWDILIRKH
UniProt Q9NW61: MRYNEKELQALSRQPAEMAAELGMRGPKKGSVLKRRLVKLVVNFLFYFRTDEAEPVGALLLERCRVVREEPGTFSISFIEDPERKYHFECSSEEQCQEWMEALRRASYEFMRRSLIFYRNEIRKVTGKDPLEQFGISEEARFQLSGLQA

What was measured:
Assay in all cases: log2 fold change, soluble protein after heating vs DMSO (PISA); higher = thermal stabilisation; K562 cells, 10 uM, 30 min; active = over 0.2 and 3.5 SD of the protein, either way, in both replicates (recomputed)
[1] = compound: NC(=O)Nc1cc(-c2cccc(F)c2)sc1C(=O)N[C@H]1CCCNC1
Method in brief: (§1)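 Soluble protein was defined as the supernatant after 21,000xg for 90 min. It came from K562 cells at 2×10^6 cells/mL given 10 μM compound for 30 min, heated in aliquots for 3 min across 48°C-58°C, pooled, and extracted in PBS with 0.5% NP-40 at 4°C, and was quantified by TMTpro 16plex LC-MS/MS with equalised channel sums. Thermal stability against control samples, from duplicates, is reported as log2 fold change.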

[2] = compound: NC(=O)c1cnc(N[C@@H]2CCCC[C@@H]2N)nc1Nc1cccc(-n2nccn2)c1
Method in brief: as §1

[3] = compound: NC1(c2ccc(-c3nc4ccn5c(=O)[nH]nc5c4cc3-c3ccccc3)cc2)CCC1
Method in brief: as §1

[4] = compound: NCC(=O)Nc1ccc(-n2nc(C(F)(F)F)cc2-c2ccc3c(ccc4ccccc43)c2)cc1
Method in brief: as §1

entinostat = compound: Nc1ccccc1NC(=O)c1ccc(CNC(=O)OCc2cccnc2)cc1 [entinostat]
Method in brief: as §1

vorinostat = compound: O=C(CCCCCCC(=O)Nc1ccccc1)NO [vorinostat]
Method in brief: as §1

citarinostat = compound: O=C(CCCCCCNC(=O)c1cnc(N(c2ccccc2)c2ccccc2Cl)nc1)NO [citarinostat]
Method in brief: as §1

silmitasertib = compound: O=C(O)c1ccc2c(c1)nc(Nc1cccc(Cl)c1)c1ccncc12 [silmitasertib]
Method in brief: as §1

[5] = compound: O=C1NC(=O)C(c2cnc3ccccn23)=C1c1cn2c3c(cc(F)cc13)CN(C(=O)N1CCCCC1)CC2
Method in brief: as §1

[6] = compound: c1cc(OCCN2CCCCC2)cc(-c2n[nH]c3ccc(-c4nnc[nH]4)cc23)c1
Method in brief: as §1

entospletinib = compound: c1cn2cc(-c3ccc4cn[nH]c4c3)nc(Nc3ccc(N4CCOCC4)cc3)c2n1 [entospletinib]
Method in brief: as §1

Measured: log2 fold change

PPIP5K2 (UniProt O43314)
inactive: [1] -0.063 | [2] -0.057 | [3] -0.016 | [4] -0.052 | entinostat 0.015 | vorinostat 0.01 | citarinostat 0.031 | silmitasertib -0.037 | [5] -0.09 | [6] -0.003 | entospletinib 0.044

POLR1B isoform 3 (UniProt Q9H9Y6)
inactive: [1] 0.05 | [3] 0.1 | [4] 0.031 | entinostat -0.058 | vorinostat 0.131 | silmitasertib 0.007 | [5] -0.07

PLPP6 (UniProt Q8IY26)
inactive: [1] -0.002 | [2] 0.136 | [3] -0.099 | [4] 0.135 | entinostat 0.067 | vorinostat 0.04 | silmitasertib -0.009 | [5] -0.058

POLR1D (UniProt P0DPB5)
inactive: [1] -0.014 | [2] 0.045 | entinostat -0.084 | vorinostat -0.064 | citarinostat -0.05 | [5] 0.12 | [6] 0.056 | entospletinib 0.032

POLR2F (UniProt P61218)
inactive: [1] 0.207 | [2] 0.3 | [3] -0.004 | [4] 0.03 | entinostat 0.096 | vorinostat 0.034 | silmitasertib -0.117 | [5] 0.002

PNN (UniProt Q9H307)
active: [6] -0.446
inactive: [1] -0.018 | [2] -0.24 | [3] 0.053 | entinostat 0.021 | vorinostat 0.045 | citarinostat -0.077 | silmitasertib -0.124 | [5] 0.106

POM121C (UniProt A8CG34)
inactive: [1] 0.187 | [2] -0.013 | [3] -0.071 | entinostat -0.035 | silmitasertib -0.152

POM121 (UniProt Q96HA1)
inactive: [1] -0.015 | [2] -0.199 | [4] -0.083 | entinostat 0.01 | vorinostat 0.055 | citarinostat 0.045 | [5] 0.05 | [6] -0.045

PMS2 (UniProt P54278)
inactive: [1] -0.072 | [2] -0.296 | [4] -0.156 | entinostat 0.015 | citarinostat -0.186 | [5] -0.141 | [6] 0.241 | entospletinib -0.137

PM20D2 (UniProt Q8IYS1)
inactive: [1] -0.004 | entinostat 0.051

POMT2 (UniProt Q9UKY4)
inactive: [2] -0.054 | [4] 0.041 | citarinostat 0.151 | [6] -0.12 | entospletinib 0.014

POLE (UniProt Q07864)
inactive: vorinostat 0

PPIG (UniProt Q13427)
inactive: [3] 0.153 | silmitasertib 0

POC1A (UniProt Q8NBT0)
inactive: [2] 0.055 | [3] -0.103 | [4] 0.121 | citarinostat -0.081 | silmitasertib 0.207 | [6] -0.607 | entospletinib 0.031

POT1 (UniProt Q9NUX5)
inactive: [1] -0.068 | [3] 0.013 | entinostat -0.028 | silmitasertib -0.077 | [5] 0.103

PMS2CL (UniProt Q68D20)
inactive: [3] 0.185 | silmitasertib 0.095 | [5] 0.062

POLD4 (UniProt Q9HCU8)
inactive: [2] 0.082 | [3] 0.003 | vorinostat 0.39 | citarinostat 0.206 | silmitasertib 0.07 | [6] 0.03 | entospletinib -0.003

POLR1E isoform 1 (UniProt Q9GZS1)
inactive: [2] 0.098 | [3] -0.053 | [4] -0.376 | silmitasertib 0.017

PODXL (UniProt O00592)
inactive: vorinostat 0.692

POLR3GL (UniProt Q9BT43)
inactive: [1] -0.106 | [3] -0.099 | entinostat -0.023 | silmitasertib -0.06

POLR2E (UniProt P19388)
inactive: [2] 0 | [3] -0.021 | [4] -0.02 | vorinostat -0.115 | citarinostat -0.001 | silmitasertib 0.134 | [5] 0.117 | [6] -0.088

PLPPR3 isoform 3 (UniProt Q6T4P5)
inactive: vorinostat -0.007 | [5] -0.046

POLB (UniProt P06746)
inactive: [1] -0.103 | entinostat 0.107 | vorinostat -0.106 | citarinostat 0.189 | [5] 0.113 | [6] -0.026

PLSCR3 (UniProt Q9NRY6)
inactive: [2] 0.156 | vorinostat -0.045

PPIA isoform 2 (UniProt P62937)
inactive: [2] -0.288 | [3] -0.253 | [4] -0.306 | vorinostat 0.024 | citarinostat -0.105 | silmitasertib 0.134 | [5] -0.049 | [6] -0.068 | entospletinib -0.266

PNPLA6 (UniProt Q8IY17)
inactive: [2] 0.122 | [3] 0.003 | [4] -0.032 | citarinostat 0.194 | silmitasertib -0.103 | [5] 0.407 | [6] -0.073 | entospletinib 0.072

PLS3 (UniProt H7C4N2)
inactive: [1] -0.183 | entinostat -0.107 | [5] -0.513

PORCN (UniProt Q9H237)
inactive: [4] -0.11

PPM1B isoform 2 (UniProt O75688)
inactive: [3] -0.052 | silmitasertib -0.021

PLEKHO2 (UniProt Q8TD55)
inactive: [3] 0.031 | [4] -0.127 | vorinostat 0.069 | citarinostat 0.1 | silmitasertib 0.17 | [6] -0.348 | entospletinib -0.015

POLG, A0A3B3IS91
inactive: [3] 0.062 | silmitasertib -0.176

POLE2 (UniProt P56282)
inactive: vorinostat -0.076

POLR2J (UniProt P52435)
inactive: [2] 0.056 | [3] 0.053 | vorinostat -0.169 | citarinostat 0.073 | silmitasertib 0.006 | [5] 0.005 | [6] 0.013 | entospletinib 0.074

PPHLN1 (UniProt Q8NEY8)
inactive: [3] 0.043 | [4] -0.072 | vorinostat -0.023 | citarinostat 0.007 | silmitasertib 0.092 | [6] 0.019 | entospletinib -0.004

Copied from the results shown (13 entries):
POLD4 (UniProt Q9HCU8)
inactive: [2] 0.082 | [3] 0.003 | vorinostat 0.39 | citarinostat 0.206 | silmitasertib 0.07 | [6] 0.03 | entospletinib -0.003

POLR1E isoform 1 (UniProt Q9GZS1)
inactive: [2] 0.098 | [3] -0.053 | [4] -0.376 | silmitasertib 0.017

PODXL (UniProt O00592)
inactive: vorinostat 0.692

POLR3GL (UniProt Q9BT43)
inactive: [1] -0.106 | [3] -0.099 | entinostat -0.023 | silmitasertib -0.06

POLR2E (UniProt P19388)
inactive: [2] 0 | [3] -0.021 | [4] -0.02 | vorinostat -0.115 | citarinostat -0.001 | silmitasertib 0.134 | [5] 0.117 | [6] -0.088

PLPPR3 isoform 3 (UniProt Q6T4P5)
inactive: vorinostat -0.007 | [5] -0.046

POLB (UniProt P06746)
inactive: [1] -0.103 | entinostat 0.107 | vorinostat -0.106 | citarinostat 0.189 | [5] 0.113 | [6] -0.026

PLSCR3 (UniProt Q9NRY6)
inactive: [2] 0.156 | vorinostat -0.045

PPIA isoform 2 (UniProt P62937)
inactive: [2] -0.288 | [3] -0.253 | [4] -0.306 | vorinostat 0.024 | citarinostat -0.105 | silmitasertib 0.134 | [5] -0.049 | [6] -0.068 | entospletinib -0.266

PNPLA6 (UniProt Q8IY17)
inactive: [2] 0.122 | [3] 0.003 | [4] -0.032 | citarinostat 0.194 | silmitasertib -0.103 | [5] 0.407 | [6] -0.073 | entospletinib 0.072

PLS3 (UniProt H7C4N2)
inactive: [1] -0.183 | entinostat -0.107 | [5] -0.513

PORCN (UniProt Q9H237)
inactive: [4] -0.11

PPM1B isoform 2 (UniProt O75688)
inactive: [3] -0.052 | silmitasertib -0.021

The list goes on:

POMT1 (UniProt Q9Y6A1)
inactive: [2] -0.112 | [3] 0.065 | [4] 0.011 | silmitasertib -0.252 | [5] 0.089

PLOD2 isoform 2 (UniProt O00469)
inactive: [3] -0.087 | citarinostat 0.093 | silmitasertib -0.006 | [6] -0.01 | entospletinib 0.018

POF1B isoform 1 (UniProt Q8WVV4)
inactive: [3] -0.033 | [4] 0.313 | citarinostat -0.398 | silmitasertib 0.391 | [6] 0.838 | entospletinib -0.335

POLRMT (UniProt O00411)
inactive: [1] 0.011 | [4] 0.05 | entinostat -0.147 | [5] -0.093

PLXND1 (UniProt Q9Y4D7)
inactive: [2] 0.018 | [3] -0.131 | [4] -0.187 | citarinostat -0.098 | silmitasertib -0.033 | [6] -0.296 | entospletinib -0.089

POLQ (UniProt O75417)
inactive: [3] -0.054 | vorinostat 0.139 | silmitasertib 0.036

PPFIA3 (UniProt O75145)
inactive: [5] 0.37

PLEKHJ1 (UniProt Q9NW61)
inactive: [5] 0.133
